For two molecules, IC50 results are on record in patent US20260384421A1, “NOVEL COMPOUNDS THAT CAN BE USED AS THERAPEUTIC AGENTS” (published 2026).

The source holds more than one record for some entries. They are shown here; other results are not. An entry can have further records. Results that share an entry do not match, cause unknown; they may come from other doses, times, organisms or constructs than stated. Some results are limits rather than exact numbers.

One experiment deals with NB-4 cells. As to the kind of experiment: alamarBlue proliferation assay with NB-4 cells. Conditions: read-out: Activity on NB-4: IC50, RPMI 1640 medium, 10% FBS. From the text:
(§1) These hyperproliferative processes can be benign or malignant and include hyperplasia, neoplasia, cancer and pre-cancerous lesions, and metastases. […] The readout was taken with a multi-well plate-reader (Tecan Spark®) in the fluorescence mode with applying a filter for excitation at 560 nm (band width 10 nm) and for emission at 590 nm (band width 10 nm). […]

A further experiment has as its system HCT-116 cells. The experiment is described as follows: alamarBlue proliferation assay with HCT-116 cells. As to conditions: read-out: Activity on HCT-116: IC50, McCoy's 5A medium, 10% FBS.
Excerpt: as §1
(Alamar Blue is a resazurin reagent that responds to reducing activity.)

A further experiment concerns A-431 cells. The experiment is described as follows: alamarBlue proliferation assay with A-431 cells. Conditions: read-out: Activity on A-431: IC50, DMEM medium, 10% FBS.
Excerpt: as §1

A word on the IC50: it is the concentration at which inhibition is half-maximal. As to `O=C(c1ccc(Oc2ccc(C3CCCCC3)cc2CO)cn1)N1CCN(Cc2ccccc2)CC1`, the IC50 with NB-4 cells is ≤ 5 µM and ≤ 1 µM; in the experiment on HCT-116 cells, ≤ 5 µM and ≤ 1 µM.
For the molecule `CCCCN1CCN(C(=O)c2ccc(Oc3ccc(C4CCC5(CC4)OCCO5)cc3CO)cc2)CC1`, the IC50 in the experiment on A-431 cells is ≤ 20 µM and ≤ 5 µM.
